Laboratory results: patent US7128898B2, “Method of minimizing cell lysis and toothpaste and mouthwash with reduced irritancy” (priority 1999, dated 2006)

What was measured:
[1] = tested on: Streptococcus mutans (ATCC 35668); assay: Mouthwash antimicrobial effectiveness, timed exposure and plating; assay type: cell-based
Description: (§1) Three mouthwash test preparations were evaluated for antimicrobial properties against Candida albicans and Streptococcus mutans. Cell suspensions of each organism were exposed to three mouthwash preparations, separately, over multiple timepoints; plated on blood agar (BAP); incubated at 35° C.; and colony counts recorded at 24 and 48 hours respectively. […] McFarland cell suspensions of C. albicans and S. mutans (ATCC 35668) were made in tryptone yeast extract broth (Sensibroth) yielding, approximate cell densities of 1.5×10^8 cells/ml. 50 μl of each organism were plated as a growth control. […] C albicans plates were incubated in oxygen at 35 degrees Centigrade. S. mutans plates were incubated in carbon dioxide at 35 degrees Centigrade.

Candida albicans = assay: as above; assay type: cell-based
Description: as §1

CCCCCCCCCCCCCCCC[n+]1ccccc1 [CPC, Cetylpyridinium Chloride]
exposure at which S. mutans is effectively killed [1]: ≤ 10 s | exposure at which C. albicans is effectively killed (Candida albicans): ≤ 10 s
